Results reported in the supplement of paper PMC8728848.
The other results are listed elsewhere or left out.

Legend:
Assay in all cases: glycan array binding signal (z-score within array); higher = stronger binding
Details in all cases: glycan notation: IUPAC condensed, linker removed
[1] = target: Neu5Ac(a2-3)Gal(b1-4)GlcNAc(b1-2)Man(a1-3)[Neu5Ac(a2-6)Gal(b1-4)GlcNAc(b1-2)Man(a1-6)]Man(b1-4)GlcNAc(b1-4)GlcNAc
Procedure, shortened: (§1)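 Columns mapping to the same glycan were averaged after glycan names were converted to IUPAC-condensed notation. The data come from 3228 arrays in the Consortium for Functional Glycomics database, limited to those with an available protein sequence. Binding is reported as a within-array Z-score averaged across arrays of one protein sequence and across linkers.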

[2] = target: Neu5Ac(a2-3)Gal(b1-4)GlcNAc(b1-2)[Neu5Ac(a2-3)Gal(b1-4)GlcNAc(b1-4)]Man(a1-3)[GlcNAc(b1-4)][Neu5Ac(a2-3)Gal(b1-4)GlcNAc(b1-2)[Neu5Ac(a2-3)Gal(b1-4)GlcNAc(b1-6)]Man(a1-6)]Man(b1-4)GlcNAc(b1-4)GlcNAc
Procedure, shortened: as §1

[3] = target: Neu5Ac(a2-3)Gal(b1-4)GlcNAc(b1-2)[Neu5Ac(a2-3)Gal(b1-4)GlcNAc(b1-4)]Man(a1-3)[GlcNAc(b1-4)][Neu5Ac(a2-3)Gal(b1-4)GlcNAc(b1-4)Man(a1-6)]Man(b1-4)GlcNAc(b1-4)GlcNAc
Procedure, shortened: as §1

[4] = target: Neu5Ac(a2-3)Gal(b1-4)GlcNAc(b1-2)[Neu5Ac(a2-3)Gal(b1-4)GlcNAc(b1-6)]Man(a1-6)[Neu5Ac(a2-3)Gal(b1-4)GlcNAc(b1-2)Man(a1-3)][GlcNAc(b1-4)]Man(b1-4)GlcNAc(b1-4)GlcNAc
Procedure, shortened: as §1

[5] = target: Neu5Ac(a2-3)Gal(b1-4)GlcNAc(b1-3)Gal
Procedure, shortened: as §1

[6] = target: Neu5Ac(a2-3)Gal(b1-4)GlcNAc(b1-3)Gal(b1-3)GlcNAc
Procedure, shortened: as §1

[7] = target: Neu5Ac(a2-3)Gal(b1-4)GlcNAc(b1-3)Gal(b1-4)GlcNAc
Procedure, shortened: as §1

[8] = target: Neu5Ac(a2-3)Gal(b1-4)GlcNAc(b1-3)Gal(b1-4)GlcNAc(b1-2)Man(a1-3)[Neu5Ac(a2-3)Gal(b1-4)GlcNAc(b1-3)Gal(b1-4)GlcNAc(b1-2)Man(a1-6)]Man(b1-4)GlcNAc(b1-4)GlcNAc
Procedure, shortened: as §1

[9] = target: Neu5Ac(a2-3)Gal(b1-4)GlcNAc(b1-3)Gal(b1-4)GlcNAc(b1-3)Gal(b1-4)GlcNAc
Procedure, shortened: as §1

[10] = target: Neu5Ac(a2-3)Gal(b1-4)GlcNAc(b1-3)Gal(b1-4)GlcNAc(b1-3)Gal(b1-4)GlcNAc(b1-2)Man(a1-3)[Neu5Ac(a2-3)Gal(b1-4)GlcNAc(b1-3)Gal(b1-4)GlcNAc(b1-3)Gal(b1-4)GlcNAc(b1-2)Man(a1-6)]GalNAc
Procedure, shortened: as §1

[11] = target: Neu5Ac(a2-3)Gal(b1-4)GlcNAc(b1-3)Gal(b1-4)GlcNAc(b1-3)GalNAc
Procedure, shortened: as §1

[12] = target: Neu5Ac(a2-3)Gal(b1-4)GlcNAc(b1-3)Gal(b1-4)GlcNAc(b1-3)[Neu5Ac(a2-3)Gal(b1-4)GlcNAc(b1-3)Gal(b1-4)GlcNAc(b1-6)]GalNAc
Procedure, shortened: as §1

[13] = target: Neu5Ac(a2-3)Gal(b1-4)GlcNAc(b1-3)Gal(b1-4)GlcNAc(b1-6)[Gal(b1-3)]GalNAc
Procedure, shortened: as §1

[14] = target: Neu5Ac(a2-3)Gal(b1-4)GlcNAc(b1-3)Gal(b1-4)[Fuc(a1-3)]GlcNAc
Procedure, shortened: as §1

[15] = target: Neu5Ac(a2-3)Gal(b1-4)GlcNAc(b1-3)GalNAc
Procedure, shortened: as §1

[16] = target: Neu5Ac(a2-3)Gal(b1-4)GlcNAc(b1-3)[Neu5Ac(a2-3)Gal(b1-4)GlcNAc(b1-6)]GalNAc
Procedure, shortened: as §1

[17] = target: Neu5Ac(a2-3)Gal(b1-4)GlcNAc(b1-6)GalNAc
Procedure, shortened: as §1

[18] = target: Neu5Ac(a2-3)Gal(b1-4)GlcNAc(b1-6)[Gal(b1-3)]GalNAc
Procedure, shortened: as §1

[19] = target: Neu5Ac(a2-3)Gal(b1-4)GlcNAc(b1-6)[Neu5Ac(a2-3)Gal(b1-3)]GalNAc
Procedure, shortened: as §1

[20] = target: Neu5Ac(a2-3)Gal(b1-4)GlcNAc6S
Procedure, shortened: as §1

[21] = target: Neu5Ac(a2-3)Gal(b1-4)[Fuc(a1-3)]GlcNAc
Procedure, shortened: as §1

[22] = target: Neu5Ac(a2-3)Gal(b1-4)[Fuc(a1-3)]GlcNAc(b1-2)Man
Procedure, shortened: as §1

[23] = target: Neu5Ac(a2-3)Gal(b1-4)[Fuc(a1-3)]GlcNAc(b1-3)Gal
Procedure, shortened: as §1

[24] = target: Neu5Ac(a2-3)Gal(b1-4)[Fuc(a1-3)]GlcNAc(b1-3)Gal(b1-4)GlcNAc
Procedure, shortened: as §1

[25] = target: Neu5Ac(a2-3)Gal(b1-4)[Fuc(a1-3)]GlcNAc(b1-3)Gal(b1-4)[Fuc(a1-3)]GlcNAc(b1-3)Gal(b1-4)[Fuc(a1-3)]GlcNAc
Procedure, shortened: as §1

[26] = target: Neu5Ac(a2-3)Gal(b1-4)[Fuc(a1-3)]GlcNAc(b1-3)GalNAc
Procedure, shortened: as §1

[27] = target: Neu5Ac(a2-3)Gal(b1-4)[Fuc(a1-3)]GlcNAc(b1-6)[Gal(b1-3)]GalNAc
Procedure, shortened: as §1

[28] = target: Neu5Ac(a2-3)Gal(b1-4)[Fuc(a1-3)]GlcNAc(b1-6)[Neu5Ac(a2-3)Gal(b1-3)]GalNAc
Procedure, shortened: as §1

[29] = target: Neu5Ac(a2-3)Gal(b1-4)[Fuc(a1-3)]GlcNAc6S
Procedure, shortened: as §1

[30] = target: Neu5Ac(a2-3)Gal6S(b1-4)GlcNAc
Procedure, shortened: as §1

[31] = target: Neu5Ac(a2-3)Gal6S(b1-4)[Fuc(a1-3)]GlcNAc
Procedure, shortened: as §1

Neu5Ac(a2-3)GalNAc = target: Neu5Ac(a2-3)GalNAc
Procedure, shortened: as §1

[32] = target: Neu5Ac(a2-3)GalNAc(b1-4)GlcNAc
Procedure, shortened: as §1

[33] = target: Neu5Ac(a2-3)[GalNAc(b1-4)]Gal(b1-4)Glc
Procedure, shortened: as §1

[34] = target: Neu5Ac(a2-3)[GalNAc(b1-4)]Gal(b1-4)GlcNAc
Procedure, shortened: as §1

[35] = target: Neu5Ac(a2-3)[GalNAc(b1-4)]Gal(b1-4)GlcNAc(b1-3)GalNAc
Procedure, shortened: as §1

[36] = target: Neu5Ac(a2-3)[Neu5Ac(a2-6)]GalNAc
Procedure, shortened: as §1

B1: Erv46-EDTA (Saccharomyces cerevisiae), P39727 (protein)
chain: MKFLVNVALVFMVVYISYIYAAAPEHHHHHHDYDIPTTENLYFQGAMDSVVTRPQLVVDRDRHAKLELNMDVTFPSMPCDLVNLDIMDDSGEMQLDILDAGFTMSRLNSEGRPVGDATELHVGGNGDGTAPVNNDPNYCGPCYGAKDQSQNENLAQEEKVCCQDCDAVRSAYLEAGWAFFDGKNIEQCEREGYVSKINEHLNEGCRIKGSAQINRIQGNLHFAPGKPYQNAYGHFHDTSLYDKTSNLNFNHIINHLSFGKPIQSHSKLLGNDKRHGGAVVATSPLDGRQVFPDRNTHFHQFSYFAKIVPTRYEYLDNVVIETAQFSATFHSRPLAGGRDKDHPNTLHVRGGIPGMFVFFEMSPLKVINKEQ
glycan array binding signal (z-score) [1]: -0.938
glycan array binding signal (z-score) [2]: -0.666
glycan array binding signal (z-score) [3]: 0.162
glycan array binding signal (z-score) [4]: -0.335
glycan array binding signal (z-score) [5]: -0.425
glycan array binding signal (z-score) [6]: 0.01
glycan array binding signal (z-score) [7]: -0.338
glycan array binding signal (z-score) [8]: 1.84
glycan array binding signal (z-score) [9]: -0.486
glycan array binding signal (z-score) [10]: 1.36
glycan array binding signal (z-score) [11]: -1.17
glycan array binding signal (z-score) [12]: 0.016
glycan array binding signal (z-score) [13]: -0.571
glycan array binding signal (z-score) [14]: 0.109
glycan array binding signal (z-score) [15]: -0.063
glycan array binding signal (z-score) [16]: -1.01
glycan array binding signal (z-score) [17]: -0.615
glycan array binding signal (z-score) [18]: 0.242
glycan array binding signal (z-score) [19]: -0.252
glycan array binding signal (z-score) [20]: -0.518
glycan array binding signal (z-score) [21]: -0.259
glycan array binding signal (z-score) [22]: -0.245
glycan array binding signal (z-score) [23]: -0.531
glycan array binding signal (z-score) [24]: 0.298
glycan array binding signal (z-score) [25]: -0.019
glycan array binding signal (z-score) [26]: 1.28
glycan array binding signal (z-score) [27]: 1.15
glycan array binding signal (z-score) [28]: 0.771
glycan array binding signal (z-score) [29]: -0.585
glycan array binding signal (z-score) [30]: -0.151
glycan array binding signal (z-score) [31]: -0.046
glycan array binding signal (z-score) (Neu5Ac(a2-3)GalNAc): -1.05
glycan array binding signal (z-score) [32]: -0.028
glycan array binding signal (z-score) [33]: -0.244
glycan array binding signal (z-score) [34]: 0.122
glycan array binding signal (z-score) [35]: -0.691
glycan array binding signal (z-score) [36]: -0.883
